The text below walks through data of patent US20100137641.

For this data set, the system named is Orf2 (acyl homoserine lactone receptor-type transcription factor, LuxR-type) (Gluconacetobacter intermedius NCI1051). The data set is described as follows: EMSA. The note with it: in the presence of acyl homoserine lactone; binding described as suggested; protein in a lysate after overexpression.

The exact form of at least one protein or probe is not confirmed. Results from cells or extracts need not show a direct contact.

Take “CCCATTCTTACCCCTCGTGAAAAAGAATGCCTGACATGGACAGCCAAGGGCAAAAGCTCATGGGAAACCGGGATGATTGTTGGTGTCAGTGAGCGCACAGTTAACTTTCACATCAACAATGCCTTGCTGAAGCTGAAATGTACGAATCGTATCATGGGTGTGGTGCGGGCTATCTGCGCAGGGCTGATTGAACTGTAAAACCTGTCAGGTCTGACAGGTAACCTGACCGTCGATTTTCATGAATGATCCTCTCATCCAACAGGAAGAGAGTAGATCCATGATCGAAGTCGTAACCGTTGAAAACGCCCACTGGGCCGGAACTGCTCTCGCAGAGCAGTTCAAGTTCCGTTACCGCCATTTTGTGGCTAATGAGCAGTGGGAAGTCCCCTTCTACAAGGGCA (double strand) [orf1 upstream probe (nt 1349-1749)]”: the binding result is on record as “binds”.
